# In article PMC4550056:
# Chains of the proteins cited; added tags and fusions are not shown. Residues count along the entry.
# UniProt Q92547, residues 444-991: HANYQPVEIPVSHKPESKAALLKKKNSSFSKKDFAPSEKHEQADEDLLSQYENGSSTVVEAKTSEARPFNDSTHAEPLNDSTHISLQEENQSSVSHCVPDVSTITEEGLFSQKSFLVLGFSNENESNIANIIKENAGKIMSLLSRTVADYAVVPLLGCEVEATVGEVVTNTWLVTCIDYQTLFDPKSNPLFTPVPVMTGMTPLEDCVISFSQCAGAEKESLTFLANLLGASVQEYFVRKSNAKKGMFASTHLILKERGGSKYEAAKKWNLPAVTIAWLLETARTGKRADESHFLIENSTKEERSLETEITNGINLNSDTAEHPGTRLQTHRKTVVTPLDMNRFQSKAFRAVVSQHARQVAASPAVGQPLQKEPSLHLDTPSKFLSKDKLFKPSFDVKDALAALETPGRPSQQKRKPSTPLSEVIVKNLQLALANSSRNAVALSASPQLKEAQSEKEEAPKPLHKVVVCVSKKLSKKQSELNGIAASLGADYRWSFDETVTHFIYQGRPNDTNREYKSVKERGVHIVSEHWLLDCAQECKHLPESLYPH
# These are yes or no findings as the source states them, for the method shown. Binding seen in cells or lysates may run through a third protein. Some results given as binding are weak or reduced against the parent protein; the word gives no strength. Sequences can lack the tags named with a protein.
# Molecular target: T1, c-Myc-tagged human mutY homolog (c-Myc-hMYH), full length (human) (UniProt Q9UIF7)
# T1 sequence: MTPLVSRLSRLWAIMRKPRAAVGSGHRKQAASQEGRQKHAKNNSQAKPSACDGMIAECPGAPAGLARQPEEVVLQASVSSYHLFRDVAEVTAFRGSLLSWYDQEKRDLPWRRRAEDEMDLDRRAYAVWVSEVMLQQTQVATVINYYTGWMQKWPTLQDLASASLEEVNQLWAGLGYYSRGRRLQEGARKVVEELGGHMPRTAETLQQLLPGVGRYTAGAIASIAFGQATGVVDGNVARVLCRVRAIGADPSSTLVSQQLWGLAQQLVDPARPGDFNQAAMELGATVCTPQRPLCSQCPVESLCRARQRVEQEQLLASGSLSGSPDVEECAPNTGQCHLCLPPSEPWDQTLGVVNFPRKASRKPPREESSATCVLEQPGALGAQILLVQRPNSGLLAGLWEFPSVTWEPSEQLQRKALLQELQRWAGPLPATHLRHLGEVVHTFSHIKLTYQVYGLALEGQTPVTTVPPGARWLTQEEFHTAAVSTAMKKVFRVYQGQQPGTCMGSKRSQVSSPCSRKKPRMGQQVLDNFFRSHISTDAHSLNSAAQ
# Test: co-IP; HEK293 cells co-transfected; lysates precipitated with anti-c-Myc antibody and protein A/G PLUS-agarose beads; blotted with anti-GST and anti-c-Myc
substance,measurement,value
"GST-tagged D2 region of hTopBP1 (BRCT 4-6, amino acids 444-991) (from UniProt Q92547 444-991) (domain or fragment)",binding,binds
